Patent CN114651011A
No constants are given. Whether binding was seen depends on the method and setting. Some entries that bind do so weakly or less than the wild type.

Assays:
[1] = molecular target: T1, linear 15-mer peptides of human CD43 with the highly basic consensus of SEQ ID NO: 50 (human); assay: CD43 peptide microarray (15-mers), antibody at 10 and 100 μg/ml; called non-specific ionic binding by the filing
T1 sequence (peptide): RRPTLTTFFGRRK

[2] = molecular target: T2, linear 15-mer peptides of human CD43 with the highly basic consensus RRRQKR (human); assay: as above
T2 sequence (peptide): RRRQKR

[3] = molecular target: T3, linear 15-mer peptides of human CD43 with the consensus motif INEGSPLW (aa 71-78 of human CD43) (human); assay: CD43 peptide microarray (15-mers), antibody at 10 and 100 μg/ml
T3 sequence (peptide): INEGSPLW

Measured: binding

B1: h-UMG1 (人源化UMG1单克隆抗体, H3-L4) (antibody, human IgG1, kappa, V domains shown)
VH: EVQLVESGGGLVQPGGSLRLSCVASGFTFSSFGMHWVRQAPGKGLEWVAYISSGSGNFYYVDTVKGRFTISRDNAKNSLYLQMNSLRAEDTAVYYCARSTYYHGSRGAMDYWGQGTLVTVSS
VL: QVVMTQSPAFLSVTPGEKVTITCSASSSVSSMYWYQLKPDQAPKLLIYDTSKMASGVPIRFSGSGSGTDFTFTVSSVEAEDAATYYCQQWSSYPPITFGGGTKVEIKR
binds: [1] | [2] | [3]
